About 3,700 (1.2%) of roughly 300,000 compounds were called active. The inconclusive results got no clear call from the source; some entries with a clear call stand among them for comparison. Calls come from the whole dose curve; tested in HEK293 cells. Where the call is inconclusive, the potency comes from a doubtful curve fit.
Test: qHTS for Inhibitors of binding or entry into cells for Lassa Virus; note: nearly all actives have a fitted effect of over 50% in size
Conditions: Lassa virus pseudotype entry inhibition, cell reporter; activity change, negative = inhibition: at 37.9 µM (top of the series) unless noted
% is set by controls: 0 for no effect and ±100 for the full control effect; potency is the fitted concentration of half-maximal effect.

Compound | Potency | activity change, negative = inhibition
CCOC(=O)COn1c(=O)c(-c2cc3ccccc3o2)[n+]([O-])c2ccccc21 | inconclusive: 0.291 µM [activator, partial curve, poor fit] | –
Nc1cccc(NC(=O)CN2CCOCC2)c1 | inconclusive: 0.631 µM [inhibitor, single point] | –
O=C(Nc1ccc2c(c1)OCCO2)c1c(F)c(F)c(F)c(F)c1F | – | inactive: 12.5%
CCN(CC)S(=O)(=O)c1cc(NC(=O)Cc2ccsc2)ccc1C | active: 0.461 µM | –
COc1ccc(Nc2c3c(nc4nncn24)CCC3)cc1OC | inconclusive: 6.31 µM [activator, single point] | –
COc1cccc(-c2cc(C(=O)Nc3cccnc3)c3ccccc3n2)c1 | inconclusive: 20 µM [inhibitor, single point] | –
O=C(NC1CCCCC1)C(c1ccc(F)cc1)N(Cc1ccco1)C(=O)c1ccccn1 (centres undefined) | inconclusive: 15.8 µM [inhibitor, single point] | –
CC1CCN(C(=O)C2COc3ccccc3C2)CC1 (centres undefined) | – | inactive: -28.2% [at 46.1 µM]
CC1(c2ccc3ccccc3c2)NC(=O)N(CC(=O)N2CCN(S(=O)(=O)c3ccccc3F)CC2)C1=O (centres undefined) | inconclusive: 20 µM [inhibitor, single point] | –
Cc1ccc(Nc2sc(C(=O)c3ccccc3)c(N)c2C(N)=O)cc1 | inconclusive: 15.8 µM [inhibitor, single point] | –
CC(C)CNc1nc(N)c([N+](=O)[O-])c(N2CCCCCC2)n1 | – | inactive: -27.9% [at 46.1 µM]
O=C(Cc1ccccc1)N/N=C/c1ccccc1Cl | – | inactive: 1.49%
N#Cc1ncc(-c2ccc3c(c2)OCCOCCOCCOCCO3)nc1C#N | inconclusive: 3.66 µM [activator, single point] | –
Cc1ccc([C@H]2C[C@H](n3cc(-c4ccc(F)cc4)nn3)[C@@H](O)CN2CC2CCCCC2)cc1 | inconclusive: 0.0315 µM [inhibitor, full curve, poor fit] | –
COc1ccc2cc(C3CC(c4ccco4)=NN3S(=O)(=O)c3ccccc3)c(Cl)nc2c1 (centres undefined) | inconclusive: 17.8 µM [inhibitor, single point] | –
Cn1c(=O)c2c(nc(OCC3COC(C)(C)O3)n2Cc2ccccc2F)n(C)c1=O (centres undefined) | inconclusive: 7.08 µM [inhibitor, partial curve] | –
Cc1ccc(S(=O)(=O)N2CCCC(C(=O)NCc3ccc4c(c3)OCO4)C2)cc1 (centres undefined) | – | inactive: -0.901%
Cc1c(CC(=O)NCCCCCC(=O)O)c(=O)oc2cc3c(cc12)CCC(C)(C)O3 | – | inactive: -22.8%
c1cncc(-c2nc(N3CCOCC3)c3ccccc3n2)c1 | – | inactive: -4.82%
CC(=O)c1c(C)[nH]c(C(=O)CN2CCN(S(=O)(=O)c3ccccc3F)CC2)c1C | inconclusive: 2.82 µM [inhibitor, single point] | –
C/C(=N/NC(=O)COc1ccc(C(C)(C)C)cc1)c1ccc(N2CCOCC2)cc1 | active: 0.562 µM | –
CCCC1CC(CSC(=N)N)OC1=O (centres undefined) | – | inactive: -20.9%

Laid out differently: two of the compounds above.
Compound	Potency	activity change, negative = inhibition
CC1(c2ccc3ccccc3c2)NC(=O)N(CC(=O)N2CCN(S(=O)(=O)c3ccccc3F)CC2)C1=O (centres undefined)	inconclusive: 20 µM [inhibitor, single point]	–
Cc1ccc(Nc2sc(C(=O)c3ccccc3)c(N)c2C(N)=O)cc1	inconclusive: 15.8 µM [inhibitor, single point]	–

(next part)

Compound | Potency | activity change, negative = inhibition
Cc1ccc(C)c(C2=NNC(=NCc3ccccc3)SC2)c1 | inconclusive: 10 µM [inhibitor, single point] | –
COc1ccc(C2(CNC(=O)C(=O)Nc3ccc(C)cc3)CCOCC2)cc1 | inconclusive: 7.94 µM [inhibitor, partial curve, poor fit] | –
OCCN1CCN(C2Cc3cc(Cl)ccc3Sc3ccc(Cl)cc32)CC1 (centres undefined) (tested in a mixture with another compound) | inconclusive: 17.8 µM [inhibitor, partial curve, poor fit] | –
O=C(CP(=O)(c1ccccc1)c1ccccc1)N1CCOCC1 | inconclusive: 35.5 µM [activator, single point] | –
COc1ccc(-n2c(=S)[nH]c3sc(-c4ccccc4)cc3c2=O)c(OC)c1 | – | inactive: 0.928%
Cc1ccc(C(C(=O)NC(C)(C)C)N(C(=O)c2csnn2)c2ccccc2F)o1 (centres undefined) | inconclusive: 3.66 µM [activator, full curve] | –
O=C(COC(=O)c1ccccc1NCc1ccco1)Nc1ccc2c(c1)OCO2 | inconclusive: 1.26 µM [inhibitor, single point] | –
Cc1ccc(NC(=O)CSc2nc3ccccc3c(=O)n2CCCN2CCCCC2)cc1Cl | inconclusive: 31.6 µM [inhibitor, single point] | –
COc1ccc(OC)c(CNCc2c(C(=O)O)n(Cc3cccc(F)c3)c3cc(OC)ccc23)c1 | – | inactive: 5.81% [at 46.1 µM]
Cc1ccccc1N1CCN(C2CCCN(C(=O)c3ccnn3C)C2)CC1 (centres undefined) | inconclusive: 1.58 µM [inhibitor, partial curve, poor fit] | –
COc1ccc(-c2cc(-c3ccccc3)c(C#N)c(S(C)=O)n2)cc1 (centres undefined) | inconclusive: 23.1 µM [inhibitor, partial curve, poor fit] | –
COc1ccccc1NC(=O)Cn1nc(-c2ccc(Cl)cc2)c2ccccc2c1=O | – | inactive: 1.4%
COc1ccc(S(=O)(=O)N2CCCCC2)cc1NC(=O)c1ccco1 | – | inactive: 0.776%
Cc1ccc(C)c(N2CCN(S(=O)(=O)c3c(C)noc3/C=C/N(C)C)CC2)c1 | inconclusive: 11.2 µM [inhibitor, partial curve, poor fit] | –
COc1cccc(-c2csc(N3CCN(CC(=O)NNC(=O)c4ccc(Cl)cc4)CC3)n2)c1 | – | inactive: 18%
O=C(Cn1ncc2c3ccccc3n(Cc3ccc(F)cc3)c2c1=O)NCc1ccccn1 | – | inactive: 24.7% [at 46.1 µM]
O=C(Nc1cccc(F)c1)N1CC=C(n2c(=O)[nH]c3ccccc32)CC1 | – | inactive: -14.8%
C=CCOC(=O)c1sc(NC(=O)c2ccco2)nc1C | inconclusive: 18.3 µM [activator, single point] | –
Cc1cc(-c2ccc(C)c(S(=O)(=O)NCC3CCN(Cc4ccccc4F)CC3)c2)on1 | inconclusive: 22.4 µM [inhibitor, single point] | –
Cc1ccc(S(=O)(=O)NCCC(=O)NC2CCCCC2)cc1 | inconclusive: 1.41 µM [activator, partial curve, poor fit] | –
Cc1ccc2c(c1)c1c(c(=O)n(Cc3ccccc3)c(=O)n1CC(=O)Nc1ccccc1F)n2C | – | inactive: 0.239% [at 46.1 µM]
O=C(NCc1ccccc1)C1CCCN(S(=O)(=O)c2cccs2)C1 (centres undefined) | inconclusive: 1.16 µM [activator, full curve] | –

— PubChem BioAssay AID540256 (National Center for Advancing Translational Sciences (NCATS), 2011)
